PubChem BioAssay AID1053208 | Peter MacCallum Cancer Centre | 2014
Shown is a random part of about 17,000 deposited reagents. 788 of them (4.7%) count as active. 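Calls rest on z-score classes alone; an extra cut-off of viability at most 70% of control was not applied to them.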 Not all columns of the deposit are shown.

Test: 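Find knock-downs that sensitise mouse osteosarcoma cells to doxorubicin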 (primary screen)
System: mouse osteosarcoma cells, early-passage culture from an engineered mouse model of fibroblastic bone tumour
Reagent: siRNA pool against mouse genes, 40 nM
Timing: about 120 h (48 h before drug, then 72 h with drug)
Treatment: doxorubicin 100 nM for 72 h, roughly 30-40% inhibitory dose
Measurement: 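Luminescent ATP signal taken as viability with or without 100 nM doxorubicin for 72 h; mean of two wells set against non-targeting siRNA and turned into robust z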
Reading the numbers: viability z-score with doxorubicin: higher = more viable cells under doxorubicin; viability z-score without drug: higher = more viable cells with knock-down alone
Rule for the call: 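Called active if knock-down leaves viability unchanged without drug (z within -2 to 2) but lowers it with doxorubicin (z at or under -2)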

target gene | combined z-score class | viability z-score with doxorubicin | viability z-score without drug | Call
Ccdc117 (GeneID 104479) | no change with or without drug | 0.22 | 0.84 | inactive
Mcoln1 (GeneID 94178) | no change with or without drug | 0.9 | -0.17 | inactive
Phlda2 (GeneID 22113) | no change with or without drug | -0.56 | -1.18 | inactive
Anapc10 (GeneID 68999) | low cell count with doxorubicin only | -2.47 | -0.17 | active
Mms19 (GeneID 72199) | low cell count without drug only | -1.35 | -2.19 | inactive
Fxyd6 (GeneID 59095) | no change with or without drug | 0.11 | 0.34 | inactive
Kcnk1 (GeneID 16525) | no change with or without drug | -0.22 | -0.51 | inactive
Tnfrsf14 (GeneID 230979) | no change with or without drug | -0.45 | 0.51 | inactive
Parp8 (GeneID 52552) | no change with or without drug | 1.12 | 1.52 | inactive
Ddx39a (GeneID 68278) | no change with or without drug | 0.22 | 0.84 | inactive
Ffar4 (GeneID 107221) | no change with or without drug | 0.9 | 1.18 | inactive
Ehmt1 (GeneID 77683) | low cell count with doxorubicin only | -2.25 | 1.85 | active
Zdhhc19 (GeneID 245308) | no change with or without drug | 1.57 | 1.18 | inactive
Timm17b (GeneID 21855) | no change with or without drug | -0.45 | 0.67 | inactive
Cmtm6 (GeneID 67213) | no change with or without drug | 1.57 | 0.34 | inactive
Vps37a (GeneID 52348) | no change with or without drug | -0.67 | -0.84 | inactive
Onecut2 (GeneID 225631) | no change with or without drug | 1.01 | 0.84 | inactive
Atp1a2 (GeneID 98660) | no change with or without drug | -1.12 | -0.17 | inactive
Tm4sf1 (GeneID 17112) | no change with or without drug | 0.45 | 1.52 | inactive
Ubiad1 (GeneID 71707) | low cell count with doxorubicin only | -2.7 | -0.17 | active
Acot2 (GeneID 171210) | no change with or without drug | 0 | 1.18 | inactive
Uqcc1 (GeneID 56046) | no change with or without drug | 0 | -0.51 | inactive
Odf2l (GeneID 52184) | no change with or without drug | 0.9 | -1.18 | inactive
Vxn (GeneID 76982) | no change with or without drug | 0.9 | 0.51 | inactive
Adcy4 (GeneID 104110) | no change with or without drug | 0.22 | 0.67 | inactive
Kcns2 (GeneID 16539) | no change with or without drug | -0.45 | 0.84 | inactive
Ppdpf (GeneID 66496) | no change with or without drug | 0.22 | 0.34 | inactive
Ddx21 (GeneID 56200) | no change with or without drug | 0.45 | 0.84 | inactive
Fmc1 (GeneID 66117) | low cell count with and without drug | -4.38 | -4.89 | inactive
Usp20 (GeneID 74270) | low cell count with doxorubicin only | -2.14 | 0.34 | active
Csad (GeneID 246277) | no change with or without drug | 1.35 | -0.51 | inactive
Pzp2 (GeneID 11287) | no change with or without drug | 1.24 | 1.85 | inactive
Mtap (GeneID 66902) | no change with or without drug | 0.34 | 0.34 | inactive
Mup5 (GeneID 17844) | no change with or without drug | -0.45 | -1.52 | inactive
Ethe1 (GeneID 66071) | no change with or without drug | 1.35 | 0.67 | inactive
Tox3 (GeneID 244579) | no change with or without drug | 1.12 | 0.67 | inactive
Ammecr1l (GeneID 225339) | no change with or without drug | -1.69 | 1.01 | inactive
Kat8 (GeneID 67773) | no change with or without drug | 0.67 | -0.17 | inactive

9 entries already listed, sorted by “viability z-score with doxorubicin”, ascending:
target gene | combined z-score class | viability z-score with doxorubicin | viability z-score without drug | Call
Anapc10 (GeneID 68999) | low cell count with doxorubicin only | -2.47 | -0.17 | active
Ehmt1 (GeneID 77683) | low cell count with doxorubicin only | -2.25 | 1.85 | active
Mms19 (GeneID 72199) | low cell count without drug only | -1.35 | -2.19 | inactive
Tnfrsf14 (GeneID 230979) | no change with or without drug | -0.45 | 0.51 | inactive
Kcnk1 (GeneID 16525) | no change with or without drug | -0.22 | -0.51 | inactive
Fxyd6 (GeneID 59095) | no change with or without drug | 0.11 | 0.34 | inactive
Ddx39a (GeneID 68278) | no change with or without drug | 0.22 | 0.84 | inactive
Ffar4 (GeneID 107221) | no change with or without drug | 0.9 | 1.18 | inactive
Parp8 (GeneID 52552) | no change with or without drug | 1.12 | 1.52 | inactive

The listing continues:
target gene | combined z-score class | viability z-score with doxorubicin | viability z-score without drug | Call
Suv39h2 (GeneID 64707) | no change with or without drug | 0.45 | 0.67 | inactive
Pyurf (GeneID 66459) | no change with or without drug | 1.8 | 1.52 | inactive
Vmn1r205 (GeneID 171251) | low cell count with doxorubicin only | -2.02 | -0.84 | active
Hyou1 (GeneID 12282) | no change with or without drug | -0.67 | -0.17 | inactive
Bnip3l (GeneID 12177) | no change with or without drug | -0.45 | -0.84 | inactive
Vcl (GeneID 22330) | no change with or without drug | 0.9 | 1.52 | inactive
Ints7 (GeneID 77065) | no change with or without drug | -1.69 | 0.17 | inactive
Rab3b (GeneID 69908) | no change with or without drug | -1.12 | 1.01 | inactive
Cspg4 (GeneID 121021) | no change with or without drug | -0.9 | 0.34 | inactive
Ttc5 (GeneID 219022) | no change with or without drug | -0.45 | 0 | inactive
Nfkbie (GeneID 18037) | no change with or without drug | 1.35 | 0.34 | inactive
Peli1 (GeneID 67245) | low cell count with doxorubicin only | -3.15 | -1.52 | active
Elovl3 (GeneID 12686) | no change with or without drug | -1.8 | 0.67 | inactive
Slc39a8 (GeneID 67547) | no change with or without drug | 0 | 0.34 | inactive
Trim25 (GeneID 217069) | high cell count without drug only | 0.79 | 2.19 | inactive
Ifnar2 (GeneID 15976) | no change with or without drug | 0.79 | 0 | inactive
Radil (GeneID 231858) | no change with or without drug | -1.35 | -0.84 | inactive
Sohlh2 (GeneID 74434) | high cell count without drug only | 1.12 | 3.2 | inactive
Chst11 (GeneID 58250) | no change with or without drug | -1.35 | 0.84 | inactive
Sit1 (GeneID 54390) | no change with or without drug | 0 | 0.17 | inactive
Tmem53 (GeneID 68777) | no change with or without drug | -0.45 | 0.34 | inactive
Fcgr1 (GeneID 14129) | no change with or without drug | -1.35 | 0.17 | inactive
Adam2 (GeneID 11495) | no change with or without drug | -0.11 | 0.17 | inactive
Agpat1 (GeneID 55979) | no change with or without drug | -0.9 | -0.84 | inactive
Zfp36l2 (GeneID 12193) | no change with or without drug | 0.22 | 1.69 | inactive
